{"sequences": {"note": "By UniProt entry, the sequences of proteins in these tests, tags left out. Where a name states a change or a piece, a line headed by the entry shows the natural chain unless it says otherwise.", "UniProt Q8IE50": "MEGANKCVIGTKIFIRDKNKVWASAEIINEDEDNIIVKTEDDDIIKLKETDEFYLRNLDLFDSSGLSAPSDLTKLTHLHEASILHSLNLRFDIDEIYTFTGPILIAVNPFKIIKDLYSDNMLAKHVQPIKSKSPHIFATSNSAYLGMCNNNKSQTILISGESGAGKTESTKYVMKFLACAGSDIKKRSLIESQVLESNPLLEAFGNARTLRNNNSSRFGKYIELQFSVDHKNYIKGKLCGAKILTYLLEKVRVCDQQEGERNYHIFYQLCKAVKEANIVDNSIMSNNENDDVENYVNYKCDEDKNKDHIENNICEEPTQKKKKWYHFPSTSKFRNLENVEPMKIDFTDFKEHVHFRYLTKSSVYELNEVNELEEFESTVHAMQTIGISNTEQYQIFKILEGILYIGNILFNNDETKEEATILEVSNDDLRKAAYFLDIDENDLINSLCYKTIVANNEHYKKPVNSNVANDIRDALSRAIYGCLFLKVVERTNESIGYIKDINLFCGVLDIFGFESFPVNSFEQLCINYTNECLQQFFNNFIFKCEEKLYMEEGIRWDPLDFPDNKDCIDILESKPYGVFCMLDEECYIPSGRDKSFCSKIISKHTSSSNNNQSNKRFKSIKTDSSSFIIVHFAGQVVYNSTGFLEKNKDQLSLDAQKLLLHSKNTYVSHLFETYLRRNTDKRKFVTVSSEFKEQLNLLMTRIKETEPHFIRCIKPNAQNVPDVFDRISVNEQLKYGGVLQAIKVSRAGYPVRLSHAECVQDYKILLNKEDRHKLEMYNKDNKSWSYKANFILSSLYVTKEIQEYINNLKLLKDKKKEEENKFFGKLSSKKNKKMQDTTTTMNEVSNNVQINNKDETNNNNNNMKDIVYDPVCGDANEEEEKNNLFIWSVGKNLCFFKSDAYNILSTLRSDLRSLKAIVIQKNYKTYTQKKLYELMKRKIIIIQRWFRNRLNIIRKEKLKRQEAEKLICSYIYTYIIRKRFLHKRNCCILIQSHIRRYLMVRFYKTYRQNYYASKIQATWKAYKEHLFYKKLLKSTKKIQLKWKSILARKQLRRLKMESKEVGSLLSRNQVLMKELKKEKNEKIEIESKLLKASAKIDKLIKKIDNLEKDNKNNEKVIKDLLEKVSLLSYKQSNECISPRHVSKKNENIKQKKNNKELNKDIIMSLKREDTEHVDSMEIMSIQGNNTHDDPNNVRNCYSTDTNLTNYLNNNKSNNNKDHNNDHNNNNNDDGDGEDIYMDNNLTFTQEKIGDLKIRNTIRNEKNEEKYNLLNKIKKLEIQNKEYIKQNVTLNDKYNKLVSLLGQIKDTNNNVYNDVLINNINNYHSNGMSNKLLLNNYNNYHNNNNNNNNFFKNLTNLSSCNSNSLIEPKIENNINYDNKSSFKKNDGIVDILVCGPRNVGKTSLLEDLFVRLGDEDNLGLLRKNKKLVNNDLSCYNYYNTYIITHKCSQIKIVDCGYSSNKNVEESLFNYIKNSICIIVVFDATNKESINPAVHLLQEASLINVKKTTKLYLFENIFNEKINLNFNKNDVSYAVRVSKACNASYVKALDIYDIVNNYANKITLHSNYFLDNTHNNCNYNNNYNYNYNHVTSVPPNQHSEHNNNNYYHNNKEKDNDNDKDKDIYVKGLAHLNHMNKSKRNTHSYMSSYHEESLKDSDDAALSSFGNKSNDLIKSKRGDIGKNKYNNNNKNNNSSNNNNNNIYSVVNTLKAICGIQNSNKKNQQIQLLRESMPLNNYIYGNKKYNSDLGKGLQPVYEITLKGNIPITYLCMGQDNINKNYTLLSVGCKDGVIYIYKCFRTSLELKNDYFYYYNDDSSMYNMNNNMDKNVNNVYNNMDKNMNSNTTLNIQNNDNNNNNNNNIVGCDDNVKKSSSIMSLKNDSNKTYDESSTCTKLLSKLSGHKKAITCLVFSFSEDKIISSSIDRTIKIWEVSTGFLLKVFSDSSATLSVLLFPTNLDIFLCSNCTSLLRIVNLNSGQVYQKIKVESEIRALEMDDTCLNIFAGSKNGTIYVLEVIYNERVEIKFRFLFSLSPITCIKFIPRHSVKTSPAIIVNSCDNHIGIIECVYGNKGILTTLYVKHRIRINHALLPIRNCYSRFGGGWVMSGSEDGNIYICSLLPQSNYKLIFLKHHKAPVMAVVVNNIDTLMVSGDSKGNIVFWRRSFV", "UniProt C6KT34": "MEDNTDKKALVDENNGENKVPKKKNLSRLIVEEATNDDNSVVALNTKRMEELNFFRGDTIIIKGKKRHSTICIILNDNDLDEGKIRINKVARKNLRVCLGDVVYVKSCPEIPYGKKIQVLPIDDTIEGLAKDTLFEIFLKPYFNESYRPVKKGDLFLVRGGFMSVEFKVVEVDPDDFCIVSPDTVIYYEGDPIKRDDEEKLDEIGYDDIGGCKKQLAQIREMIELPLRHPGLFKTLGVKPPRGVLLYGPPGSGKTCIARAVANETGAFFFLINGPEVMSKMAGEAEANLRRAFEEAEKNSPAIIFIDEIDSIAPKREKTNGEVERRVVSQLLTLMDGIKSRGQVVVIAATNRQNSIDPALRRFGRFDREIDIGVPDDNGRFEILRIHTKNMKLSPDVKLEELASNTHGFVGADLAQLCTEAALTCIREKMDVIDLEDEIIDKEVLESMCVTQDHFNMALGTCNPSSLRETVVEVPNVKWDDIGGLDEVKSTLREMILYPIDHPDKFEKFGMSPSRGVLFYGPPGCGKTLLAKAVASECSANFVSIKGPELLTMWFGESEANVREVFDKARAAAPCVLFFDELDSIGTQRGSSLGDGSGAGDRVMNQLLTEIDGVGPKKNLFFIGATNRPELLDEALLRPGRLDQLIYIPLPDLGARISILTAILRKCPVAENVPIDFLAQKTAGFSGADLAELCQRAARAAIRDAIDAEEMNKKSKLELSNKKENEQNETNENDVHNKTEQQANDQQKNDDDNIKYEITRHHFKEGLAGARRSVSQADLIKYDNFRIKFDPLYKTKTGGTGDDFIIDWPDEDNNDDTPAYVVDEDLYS"}, "source": "paper PMC13448217", "molecules": {"B1": {"name": "PfRab18 (protein, UniProt Q8T324 1-201)", "chain": "MKNKNKYDYLLKLLLVGDSSVGKSSILCRYSDNQFEEKVLSTIGIDFKVKYLKIDNKTIKVGIWDTAGQERFRTLTSAYYRNAHAIILVYDCTVRESFENLDVWINEIDKYSTNKNAIKMLVANKIDKPNHEVTKDEGKNFAFENNMLFCETSAKNDINITYCFEELIQQILNNPSLLELSIVTKNLKLGKKEESRSNCAC"}, "B2": {"name": "SEY1 (protein, UniProt Q8ILT5 1-937)", "chain": "MEKGVEKTQIIDYDGNVIEDLKEWMIDNKLNDLGFSYNVIAVLGSQSSGKSTLLNNLFKTSFDVMNTKQGHSQTTKGLWLSYDKFDDETNNSSSFFKLKKKNKPTLILDVEGTDSKERGDNRLTFEHRSALFCLALADCVIVNLWYHSLGNFTASNYGLLKTVMEVNLELFQQEKNSPKTILLFTVRDWFEEFAPIEVVRNKILDEYINKIWKEMKKPKEAEKLNINNFFIIEVVGLSHGIIKKEDFLKDVNNLRDKWINNLRPSKYSRNIPSDGFAQYCNNIWNTIVKQSQLDIPSQKEMLSTFRCQEIKNNVINNINKEIKEKSIESHNKVIENFKEWAEKNIIQKCLDDYFKDASRYKENICLRTSQELLDYLFTQLQAIVDNNLQYIQRTLCTKFFNELSNMYKICTIEKNTFSFSRDSNLKTVKDNNKNTSHEDIKRDLLNNNQDKCVHLWSNFLYNADKLEYFTFCNFYENYEKSNIEIKTNMKNDDNLKNDDNLKNDAHNNITTHQFNYKPTLSVLSTSIYKDSNRIRNIQCGILLNKTRQTIKNSFKNMDTYLLTTKNTEEYWNNTVQLVLKLQDNINTHLTKCFINLKGTNHNNLNIYNDDMMYNNDDMVFNNNDDDDNNNNNNNNNYYYYNKNDDANLSKDENYNNKFSFSLTNEKGIFQNINNNNEGSDEICYTNALKKIDLIKNKQVYKSTINEDINNKLQNKKYIHELKNYYLDEIMDVLKNKLDEISENLATIIIQRFESVFNYDEYEQPRQWRDISMAELKKIFLKSKNYAFLIIDILQKNIKVELIDDYLPNNFIKDEIIEKGKIKAKRRIQEICRDAQYIQETGSKMSLKNVPVVFWIILLLFGWNEILFFIRMFFKLNVILPLFFAAAFIVSTFVYNGNTQALSYINKIIFYMAKNSYNFFKHIQAISNPPPKNVQKQE"}}, "note": "No constants are given. Whether binding was seen depends on the method and setting. Binding seen in cells or lysates may run through a third protein. These calls come from enrichment with a bait or labelling near it, and not all partners need be listed."}
{"target": "endogenous PfMyoF (P. falciparum (endogenous in 3D7 parasites)) (UniProt Q8IE50)", "assay": "affinity purification with mass spectrometry; co-immunoprecipitation from late trophozoite lysate with polyclonal α-PfMyoF and Protein A beads, pre-immune serum as control; 50 mM Tris pH 7.4, 150 mM NaCl, 5 mM MgCl2, 1% NP-40, 5 mM ATP, 4 °C; hits enriched ≥5-fold by iBAQ; three replicates"}
{"molecule": "PF3D7_0619400 (from UniProt C6KT34)", "binding": "binds"}
{"molecule": "B1", "binding": "binds"}
{"molecule": "B2", "binding": "binds"}
